Measurements published in publication PMC11653682.
Results are given in words; binding and its absence hold for the method and conditions named. Binding seen in cells or lysates may run through a third protein. Some binding calls cover weakened binding; strength is not graded here.

Protein sequences, listed by entry. Tags and fused reporters are not part of them. Residues count along the entry.
UniProt O88763: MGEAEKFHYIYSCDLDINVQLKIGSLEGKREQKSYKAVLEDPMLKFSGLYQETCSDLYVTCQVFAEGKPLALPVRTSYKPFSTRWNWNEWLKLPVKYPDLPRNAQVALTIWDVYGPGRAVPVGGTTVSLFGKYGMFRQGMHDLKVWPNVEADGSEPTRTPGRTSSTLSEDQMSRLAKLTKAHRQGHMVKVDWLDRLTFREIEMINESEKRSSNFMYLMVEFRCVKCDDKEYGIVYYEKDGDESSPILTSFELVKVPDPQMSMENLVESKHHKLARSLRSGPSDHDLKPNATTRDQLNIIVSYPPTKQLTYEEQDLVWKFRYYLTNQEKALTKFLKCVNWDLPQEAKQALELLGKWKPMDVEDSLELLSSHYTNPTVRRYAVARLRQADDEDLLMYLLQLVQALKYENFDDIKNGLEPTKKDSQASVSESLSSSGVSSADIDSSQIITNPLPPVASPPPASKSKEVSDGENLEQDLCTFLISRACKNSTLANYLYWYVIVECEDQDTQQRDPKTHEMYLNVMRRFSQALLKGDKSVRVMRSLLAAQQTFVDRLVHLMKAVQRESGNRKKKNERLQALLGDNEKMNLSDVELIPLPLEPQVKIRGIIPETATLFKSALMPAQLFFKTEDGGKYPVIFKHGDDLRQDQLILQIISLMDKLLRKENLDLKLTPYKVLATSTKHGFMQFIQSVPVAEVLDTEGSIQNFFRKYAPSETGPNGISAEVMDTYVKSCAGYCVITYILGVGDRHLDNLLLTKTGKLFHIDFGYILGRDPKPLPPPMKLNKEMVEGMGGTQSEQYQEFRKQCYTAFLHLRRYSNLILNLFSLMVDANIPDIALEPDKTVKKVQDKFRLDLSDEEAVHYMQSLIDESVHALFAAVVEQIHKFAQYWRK
UniProt Q91XJ1: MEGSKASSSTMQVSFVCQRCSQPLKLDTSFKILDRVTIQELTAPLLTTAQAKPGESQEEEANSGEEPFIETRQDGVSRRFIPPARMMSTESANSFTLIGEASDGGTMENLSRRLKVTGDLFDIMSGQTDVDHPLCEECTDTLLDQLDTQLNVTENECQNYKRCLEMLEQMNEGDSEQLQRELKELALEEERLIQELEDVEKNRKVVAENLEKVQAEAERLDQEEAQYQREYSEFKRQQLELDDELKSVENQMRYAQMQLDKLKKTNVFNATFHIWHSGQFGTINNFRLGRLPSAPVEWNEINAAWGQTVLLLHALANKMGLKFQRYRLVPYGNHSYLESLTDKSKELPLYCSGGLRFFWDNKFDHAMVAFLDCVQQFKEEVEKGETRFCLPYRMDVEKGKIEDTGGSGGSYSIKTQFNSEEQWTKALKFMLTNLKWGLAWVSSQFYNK
UniProt P04785, residues 20-509: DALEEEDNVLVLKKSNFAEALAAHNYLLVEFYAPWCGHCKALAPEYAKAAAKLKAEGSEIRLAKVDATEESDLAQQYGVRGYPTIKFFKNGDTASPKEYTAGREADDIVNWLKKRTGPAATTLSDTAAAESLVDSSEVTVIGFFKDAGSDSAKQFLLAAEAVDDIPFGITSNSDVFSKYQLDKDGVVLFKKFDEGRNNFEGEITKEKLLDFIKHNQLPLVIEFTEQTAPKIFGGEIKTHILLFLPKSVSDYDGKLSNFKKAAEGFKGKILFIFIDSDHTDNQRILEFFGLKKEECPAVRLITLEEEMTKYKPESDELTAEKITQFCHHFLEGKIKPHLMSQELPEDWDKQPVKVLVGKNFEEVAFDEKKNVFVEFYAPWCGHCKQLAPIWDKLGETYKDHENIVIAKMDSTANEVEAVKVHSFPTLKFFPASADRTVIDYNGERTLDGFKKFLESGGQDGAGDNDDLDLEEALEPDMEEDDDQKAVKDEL

Biological target: T1, aspartate aminotransferase (GOT2) (not stated (cells of the IP not named; H9C2 in the neighbouring experiments)) (UniProt P00507)
T1 sequence: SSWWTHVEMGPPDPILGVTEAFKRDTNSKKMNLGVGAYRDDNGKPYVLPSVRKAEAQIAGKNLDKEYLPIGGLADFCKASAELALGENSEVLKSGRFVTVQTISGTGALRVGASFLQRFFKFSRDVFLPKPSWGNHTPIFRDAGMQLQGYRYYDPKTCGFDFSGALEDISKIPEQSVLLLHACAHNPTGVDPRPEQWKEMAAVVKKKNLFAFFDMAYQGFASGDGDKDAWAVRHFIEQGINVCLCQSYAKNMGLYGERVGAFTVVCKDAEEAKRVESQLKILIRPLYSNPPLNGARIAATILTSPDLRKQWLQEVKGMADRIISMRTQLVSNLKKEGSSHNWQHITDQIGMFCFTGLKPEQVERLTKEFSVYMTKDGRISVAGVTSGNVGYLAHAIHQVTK
Test: co-IP; IP of GOT2, partners detected by Western blotting; cells not named; X-ray or aloe emodin treatment

Row | Substance | binding
1 | VPS34 (from UniProt O88763 1-887) | binds
2 | beclin1 (from UniProt Q91XJ1 1-448) | binds
3 | protein disulfide‐isomerase (P4HB) (from UniProt P04785 20-509) | binds
